Data on two substances can be found in patent US20250084388A1.

The chains behind the UniProt entries cited, without tags or fusion partners. Where a name states a change or a piece, a line headed by the entry shows the natural chain unless it says otherwise. Residues count along the entry.
UniProt P22004, residues 382-513: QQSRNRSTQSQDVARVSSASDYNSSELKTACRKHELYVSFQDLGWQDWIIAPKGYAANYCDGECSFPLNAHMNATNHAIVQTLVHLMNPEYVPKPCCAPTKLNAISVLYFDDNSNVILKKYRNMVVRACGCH
UniProt P36896: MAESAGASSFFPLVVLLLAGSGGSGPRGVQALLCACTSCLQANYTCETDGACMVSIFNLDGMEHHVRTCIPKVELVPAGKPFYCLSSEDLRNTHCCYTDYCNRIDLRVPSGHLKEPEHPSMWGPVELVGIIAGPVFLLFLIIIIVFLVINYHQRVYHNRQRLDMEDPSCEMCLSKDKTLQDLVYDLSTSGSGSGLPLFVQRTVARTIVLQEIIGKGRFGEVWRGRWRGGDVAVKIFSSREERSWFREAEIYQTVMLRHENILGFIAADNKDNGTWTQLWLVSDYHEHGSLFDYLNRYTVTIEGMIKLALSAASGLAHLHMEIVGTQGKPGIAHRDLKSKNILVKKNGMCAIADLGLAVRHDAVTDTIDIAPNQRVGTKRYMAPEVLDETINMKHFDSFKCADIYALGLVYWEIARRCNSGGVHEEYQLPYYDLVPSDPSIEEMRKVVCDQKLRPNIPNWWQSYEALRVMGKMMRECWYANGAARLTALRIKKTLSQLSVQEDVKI

Results are given in words; binding and its absence hold for the method and conditions named. Some binding calls cover weakened binding; strength is not graded here.

One experiment addresses T1, GDF11 (UniProt O95390).
T1 sequence (looked up): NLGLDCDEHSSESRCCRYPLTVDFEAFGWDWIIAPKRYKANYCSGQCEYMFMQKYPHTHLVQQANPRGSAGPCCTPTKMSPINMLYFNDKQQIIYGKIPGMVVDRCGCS
Briefly: SPR (retold in Example 3; the ligands are those of the 58th table).

The target in experiment [1] is BMP6 (UniProt P22004). As to the kind of experiment: Biacore SPR.
In experiment [2] the target is T2, GDF3 (UniProt Q9NR23).
T2 sequence (looked up): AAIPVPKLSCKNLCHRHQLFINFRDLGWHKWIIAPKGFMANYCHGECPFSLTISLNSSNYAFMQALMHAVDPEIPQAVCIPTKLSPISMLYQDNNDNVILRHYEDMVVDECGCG
Briefly: Biacore SPR.

Experiment [3] concerns the target BMP6 (UniProt P22004). Briefly: Biacore SPR (legend of FIG. 4).
For experiment [4], the target named is T2, GDF3. Briefly: Biacore SPR (legend of FIG. 4).

Consider “ALK4-Fc homodimer (from UniProt P36896 24-126) (Fc fusion)”, for which the binding entry with GDF11 was “binds”.
On to “ALK4-Fc:ActRIIB-Fc heterodimer (from UniProt P36896 24-126; Q13705 20-134) (Fc fusion)”, for which the binding result with BMP6 [1], with GDF3 [2], with BMP6 [3] and with GDF3 [4] was “binds” throughout.
